# In PubChem BioAssay AID504444 (National Center for Advancing Translational Sciences (NCATS), 2011):
# In all, about 360,000 compounds went through this assay and about 7,500 (2.1%) were called active. This list was built around the results that the source calls inconclusive (neither active nor inactive); the mix of calls is not that of the screen. Calls come from the whole dose curve; as a rule, active = well fitted inhibition curve with a large enough effect; inconclusive = small, poorly fitted or top-dose-only effect, or effect the other way; inactive = flat fitted curve, though single readings scatter. A potency beside an inconclusive call is a rough fit, not a confirmed value.
# Test: Nrf2 qHTS screen for inhibitors; note: nearly all actives have a fitted effect of over 60% in size
# Conditions: A549 ARE-Fluc reporter, luciferase luminescence, 18-24 h; activity change, negative = inhibition: at 46 µM (top of the series)
# In short: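 Nrf2 activity is the BugLite luminescence, read 15 min after reagent at room temperature, following CellTiter-Fluor cytotoxicity readout (30 min, 37C). Compound titrations were applied for 18-24 h to 5000 A549 ARE_Fluc cells/well in 5% FBS OPTI-MEM.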
# % is set by controls: 0 for no effect and ±100 for the full control effect; potency is the fitted concentration of half-maximal effect.
Structure (SMILES),Potency,"activity change, negative = inhibition"
COc1ccc(NC(=O)CN(C2CCCCC2)S(C)(=O)=O)cc1Cl,"inconclusive: 29.1 µM [falling, single point]",
CCc1nn(CC(=O)Nc2cccc(C(C)=O)c2)c(=O)c2cc3sccc3n12,"inconclusive: 29.1 µM [falling, single point]",
CC(C)(C)c1ccc(C(=O)CS(=O)(=O)c2ccccc2)cc1,"inconclusive: 11.6 µM [activator, partial curve]",
COc1cc(NC(=O)c2cc3nc(-c4ccccc4)cc(-c4ccccc4)n3n2)cc(OC)c1OC,"inconclusive: 5.17 µM [falling, full curve, poor fit]",
CC(C)(C)OC(=O)CNC(=O)c1[nH]cnc1C(=O)N[C@@H](Cc1ccccc1)C(=O)OC(C)(C)C,"inconclusive: 29.1 µM [falling, single point]",
N#CCC(=O)N/N=C\c1cccc(OC/C=C/c2ccccc2)c1,"inconclusive: 8.2 µM [activator, partial curve]",
CC(C)CCn1c(Sc2nc3ccccc3s2)nc2c1c(=O)[nH]c(=O)n2C,"inconclusive: 18.4 µM [falling, single point]",
CC(=O)c1cccc(NC(=O)CCc2nnc3ccc(N4CCN(C)CC4)nn23)c1,"inconclusive: 32.6 µM [falling, single point]",
Cc1ccc(S(=O)(=O)N2[C@@H](c3ccc(Br)cc3)C(C(=O)O)=CC[C@H]2c2ccc(Cl)cc2)cc1,"inconclusive: 29.1 µM [falling, single point]",
O=c1cc(CSc2nc3ccccc3[nH]2)c2ccccc2[nH]1,"inconclusive: 2.06 µM [activator, full curve]",
COc1ccccc1N1CCN(C(=O)C2CCC(Cn3c(=S)[nH]c4ccccc4c3=O)CC2)CC1 (configuration not stated),"inconclusive: 4.11 µM [falling, single point]",
Cc1ccc(C(=O)N(CCC2=CCCCC2)c2c(N)n(Cc3ccccc3)c(=O)[nH]c2=O)o1,,inactive: 6.16%
COc1ccnc(Oc2ccc(F)cc2)c1C(=O)N/C=N/OCc1ccc(Cl)cc1Cl,"inconclusive: 0.82 µM [falling, full curve, poor fit]",
Cc1ccc(NS(=O)(=O)c2ccc3c(c2)NC(=O)C(C)C(=O)N3)cc1C (configuration not stated),"inconclusive: 14.6 µM [falling, partial curve, poor fit]",
Cc1ccc(C)c(N2CCN(C(=O)C3CCN(S(=O)(=O)c4c(C)noc4C)CC3)CC2)c1,"inconclusive: 3.66 µM [falling, full curve, poor fit]",
COc1ccccc1C(=O)NNC(=S)NC(=O)c1ccco1,"inconclusive: 9.2 µM [falling, partial curve]",
O=C(Nc1cccnc1)c1ccc(Cl)c(S(=O)(=O)N2CCCCCC2)c1,active: 14.6 µM,
O=c1[nH]c(C2CCN(S(=O)(=O)c3ccc(F)cc3)CC2)nc2c1nnn2Cc1ccc2c(c1)OCCO2,"inconclusive: 29.1 µM [falling, partial curve, poor fit]",
CC1CCCC(C)N1C(=O)CN1CCN(c2nc(-c3ccc(F)cc3)cs2)CC1 (configuration not stated),"inconclusive: 20.6 µM [falling, single point]",
Nc1n[nH]c2c1C1(CCCCC1)Cc1ccccc1-2,"inconclusive: 29.1 µM [falling, single point]",
C(=N\Nc1nc2ccccc2[nH]1)/c1c[nH]c2ccccc12,"inconclusive: 23.1 µM [activator, single point]",

Structure (SMILES),Potency,"activity change, negative = inhibition"
COc1ccc(CN(C)CC(=O)NC2CCCc3ccccc32)cc1OC (configuration not stated),"inconclusive: 0.082 µM [falling, full curve, poor fit]",
CC(C)Oc1ccc(C2CC(=O)N(c3cccc(Br)c3)C2=O)cc1 (configuration not stated),"inconclusive: 23.1 µM [falling, single point]",
Cc1ccccc1C(=O)NC(=S)NCCC1=CCCCC1,"inconclusive: 16.4 µM [activator, partial curve]",
Cc1nn(C)cc1CN(C)C(=O)c1sc2cccc(Cl)c2c1Cl,"inconclusive: 25.9 µM [falling, single point]",
Cc1ccc2nc(-c3ccncc3)cc(C(=O)NCc3ccccc3F)c2c1,"inconclusive: 5.17 µM [activator, full curve, poor fit]",
Cc1nn2c(=O)cc(COC(=O)c3cccs3)nc2s1,"inconclusive: 29.1 µM [falling, single point]",
CC(=O)Nc1ccc(OCC(O)Cn2cccn2)cc1 (configuration not stated),"inconclusive: 2.31 µM [falling, partial curve, poor fit]",
CSc1nc(O)c(C(c2ccc(O)cc2)c2c(O)nc(SC)[nH]c2=O)c(=O)[nH]1,,inactive: 7.49%
S=C(c1c[nH]c2ccccc12)N1CCCC1,"inconclusive: 6.51 µM [falling, partial curve, poor fit]",
Cc1ccc(C(=O)NNC(=O)Cc2cccs2)cc1,"inconclusive: 6.51 µM [activator, partial curve, poor fit]",
CC(C)Cn1c(N)c(C(=O)COC(=O)c2cc(C3CC3)nc3ccccc23)c(=O)n(C)c1=O,"inconclusive: 18.4 µM [falling, single point]",
CCOC(=O)c1c(NC(C)=O)sc(/C(C)=N/Nc2ccc(C(=O)O)cc2)c1C,"inconclusive: 29.1 µM [activator, single point]",
CC(C)(C)C1CCc2nc(NC(=O)Cc3ccccc3)sc2C1 (configuration not stated),"inconclusive: 7.31 µM [activator, partial curve]",
Cc1ccc(N(C(=O)c2snc(C(N)=O)c2N)C(C(=O)NC2CCCC2)c2ccc(C)o2)cc1 (configuration not stated),"inconclusive: 29.1 µM [falling, single point]",
COc1cccc(CNC(=O)CN2C(=O)CSc3ccc(S(=O)(=O)N4CCCCC4)cc32)c1,"inconclusive: 11.6 µM [falling, partial curve, poor fit]",
CCn1c(/C=C2\C(=O)Nc3ccccc32)nc2ccccc2c1=O,"inconclusive: 23.1 µM [falling, single point]",
CC(=O)c1nc(N2CCN(S(=O)(=O)c3ccc(C)cc3)CC2)c2ccccc2n1,,inactive: -28.2%
Cc1ccc(OCC(=O)Nc2nnc(S(=O)(=O)N3CCCCCC3)s2)cc1,"inconclusive: 2.06 µM [activator, full curve]",
COc1ccccc1CN1CC(C(=O)N2CCCCO2)CCC1=O (configuration not stated),"inconclusive: 23.1 µM [activator, partial curve]",
COc1cc(Nc2nc3c(S(=O)(=O)c4ccc(C)c(C)c4)nnn3c3ccsc23)cc(OC)c1,,inactive: 29%
Cc1cc2c(s1)c1cnn(Cc3ccccc3Cl)c(=O)c1n2C,,inactive: 18.5%

# Among those listed so far, these contain a tert-butyl group:
Structure (SMILES),Potency,"activity change, negative = inhibition"
CC(C)(C)c1ccc(C(=O)CS(=O)(=O)c2ccccc2)cc1,"inconclusive: 11.6 µM [activator, partial curve]",
CC(C)(C)OC(=O)CNC(=O)c1[nH]cnc1C(=O)N[C@@H](Cc1ccccc1)C(=O)OC(C)(C)C,"inconclusive: 29.1 µM [falling, single point]",
CC(C)(C)C1CCc2nc(NC(=O)Cc3ccccc3)sc2C1 (configuration not stated),"inconclusive: 7.31 µM [activator, partial curve]",

# The list goes on:

Structure (SMILES),Potency,"activity change, negative = inhibition"
Cc1ccc(OCC(=O)c2cc(C)n(Cc3cccs3)c2C)c([N+](=O)[O-])n1,active: 11.6 µM,
Cc1ccc(Cn2c(C(C)Nc3nc(-c4ccc(F)cc4)cs3)nc3cc(Cl)c(Cl)cc32)cc1 (configuration not stated),"inconclusive: 29.1 µM [activator, single point]",
Oc1ccc(NCc2ccccc2OCc2ccc(Cl)cc2)cc1,,inactive: 7.27%
CC[C@]12c3[nH]c4ccc(OC)cc4c3CCN1C(=O)C(CC(=O)NC/C=C(\C)CCC=C(C)C)C[C@@H]2C(=O)N1CCN(C(=O)c2ccco2)CC1 (some centres not stated),"inconclusive: 23.1 µM [falling, single point]",
COc1cccc(C(c2nnnn2Cc2ccco2)N2CCN(Cc3ccccc3)CC2)c1OC (configuration not stated),"inconclusive: 25.9 µM [falling, single point]",
O=c1[nH]nc(Cc2ccc(Cl)cc2)c2ccccc12,"inconclusive: 29.1 µM [falling, single point]",
CCCCCCCOC(=O)C1=C(C)Nc2ncnn2C1c1cccs1 (configuration not stated),active: 25.9 µM,
COC(=O)C1=C(C(=O)OC)[C@@H]2N(C)c3ccccc3[C@@]23C[C@@H](C(=O)OC)N(C(=O)C2CCC2)C3=N1,,inactive: 7.19%
CCOc1ccc(CCNC(=O)c2nn(C)c3c2CSc2ccccc2-3)cc1,,inactive: -0.907%
Cc1ccccc1NC(=O)/C=C/c1cccs1,"inconclusive: 23.1 µM [activator, partial curve]",
Cc1nn(-c2ccccc2)c(N)c1C1(O)C(=O)Nc2ccc([N+](=O)[O-])cc21 (configuration not stated),"inconclusive: 23.1 µM [activator, partial curve, poor fit]",
O=C(O)c1ccc(NC(=O)c2cc(S(=O)(=O)N3CCCCC3)c(Cl)cc2Cl)cc1,"inconclusive: 29.1 µM [falling, single point]",
COc1ccc(C(=O)NNC(=S)NC(=O)c2ccc(OC)cc2)cc1,"inconclusive: 18.4 µM [falling, single point]",
CCOc1ccccc1CNC(=O)CCCn1ccc2cc(S(=O)(=O)N3CCCC3)ccc21,"inconclusive: 29.1 µM [falling, single point]",
O=C(Cn1ccc(C(F)(F)F)n1)N=Nc1c(O)[nH]c2ccc(Br)cc12,"inconclusive: 5.17 µM [falling, partial curve, poor fit]",
COc1cccc(C(=O)Nc2nnc(S(=O)(=O)N3CCCC3)s2)c1,"inconclusive: 29.1 µM [activator, single point]",
O=C(c1nc2ccccn2c1CNCCCn1ncc2ccccc21)N1CCOCC1,"inconclusive: 2.31 µM [falling, full curve]",
O=C(C1CCC1)N1CCc2cc(S(=O)(=O)Nc3ccc4c(c3)OCO4)ccc21,active: 10 µM,
CC(=O)c1ccc(OCCCC(=O)Nc2cccc(S(=O)(=O)N3CCCCCC3)c2)cc1,"inconclusive: 23.1 µM [falling, single point]",
O=C(Nc1ccc2c(c1)OCCO2)c1ccc(Br)cc1,"inconclusive: 2.59 µM [activator, partial curve]",
